No constants are given. Whether binding was seen depends on the method and setting. A result given as binding can be weak or reduced; the word gives no strength. Tags and fused reporters may be left off the sequences shown.
Biological target: NbREM4 (N. benthamiana remorin), yeast two-hybrid fusion (Nicotiana benthamiana)
Experiment: two-hybrid

B1: AtPBS1 (A. thaliana PBS1) fused to the GAL4 activation domain (enzyme, UniProt Q9FE20 1-456)
chain: MGCFSCFDSSDDEKLNPVDESNHGQKKQSQPTVSNNISGLPSGGEKLSSKTNGGSKRELLLPRDGLGQIAAHTFAFRELAAATMNFHPDTFLGEGGFGRVYKGRLDSTGQVVAVKQLDRNGLQGNREFLVEVLMLSLLHHPNLVNLIGYCADGDQRLLVYEFMPLGSLEDHLHDLPPDKEALDWNMRMKIAAGAAKGLEFLHDKANPPVIYRDFKSSNILLDEGFHPKLSDFGLAKLGPTGDKSHVSTRVMGTYGYCAPEYAMTGQLTVKSDVYSFGVVFLELITGRKAIDSEMPHGEQNLVAWARPLFNDRRKFIKLADPRLKGRFPTRALYQALAVASMCIQEQAATRPLIADVVTALSYLANQAYDPSKDDSRRNRDERGARLITRNDDGGGSGSKFDLEGSEKEDSPRETARILNRDINRERAVAEAKMWGESLREKRRQSEQGTSESNSTG
Q: B1 was tested. Which binding did it give?
A: binds
